# Screen size: about 310,000 compounds; about 17,000 (5.5%) were called active. The inconclusive results got no clear call from the source; some entries with a clear call stand among them for comparison. The call rests on the fitted dose curve; in most records, active means well fitted inhibition curve with a large enough effect; inconclusive means small, poorly fitted or top-dose-only effect, or effect the other way; inactive means no such curve, though single readings can be large or run the other way. A potency beside an inconclusive call is a rough fit, not a confirmed value.
# By UniProt entry, the sequences of proteins in these tests, tags left out. Where a name states a change or a piece, a line headed by the entry shows the natural chain unless it says otherwise.
# UniProt P51450: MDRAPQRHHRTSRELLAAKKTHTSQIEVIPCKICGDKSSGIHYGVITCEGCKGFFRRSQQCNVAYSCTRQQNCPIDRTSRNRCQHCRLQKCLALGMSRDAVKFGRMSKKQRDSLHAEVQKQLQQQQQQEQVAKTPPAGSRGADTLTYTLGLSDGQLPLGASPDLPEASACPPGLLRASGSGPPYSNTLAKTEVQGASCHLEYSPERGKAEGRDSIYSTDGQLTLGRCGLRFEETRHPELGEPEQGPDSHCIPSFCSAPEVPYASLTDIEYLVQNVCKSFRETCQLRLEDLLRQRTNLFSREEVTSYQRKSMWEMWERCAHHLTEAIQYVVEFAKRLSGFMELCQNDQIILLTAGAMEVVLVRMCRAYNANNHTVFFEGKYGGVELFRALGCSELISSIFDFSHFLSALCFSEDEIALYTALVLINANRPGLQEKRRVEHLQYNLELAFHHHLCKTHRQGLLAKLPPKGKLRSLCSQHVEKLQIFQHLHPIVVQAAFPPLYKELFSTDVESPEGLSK
# Biological target: Nuclear receptor ROR-gamma (Mus musculus) (UniProt P51450)
# Test: qHTS for inhibitors of ROR gamma transcriptional activity; further: nearly all actives have a fitted effect of over 60% in size
# Details: Drosophila S2 Gal4-RORgamma UAS-luciferase reporter, 20 h; activity change, negative = inhibition: at 53.6 µM (top of the series)
# In short: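 Luminescence from a UAS-regulated Photinus luciferase reporter in stably transfected Drosophila Schneider cells is measured; decreased signal marks ROR gamma inhibition. Fusion expression is induced by 700 uM copper sulfate for 20 hr.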
# On the % scale 0 is the no-effect control and ±100 the full control effect; potency means the concentration at half of the fitted maximal effect.
SMILES,Potency,"activity change, negative = inhibition"
CCN(CC)c1ccc2cc(-c3nc(-c4ccc(OC)cc4)cs3)c(=O)oc2c1,"inconclusive: 7.94 µM [activator, partial curve, poor fit]",
CN1CCN(c2ccc(NC(=O)c3cccs3)cc2)CC1,"inconclusive: 11.2 µM [inhibitor, single point]",
CCOC(=O)Cc1csc(NC(=O)c2c(O)c3c(n(CC(C)C)c2=O)CCCC3)n1,"inconclusive: 35.5 µM [activator, single point]",
CC(=O)Nc1ccc(SCC(=O)c2c(N)n(Cc3ccccc3)c(=O)n(C)c2=O)cc1,,inactive: 21.4%
CC(=O)Nc1ccc(NC(=O)c2oc3cc(C)c(C)cc3c2C)cc1,"inconclusive: 0.631 µM [inhibitor, full curve, poor fit]",
COc1nc(-c2ccccc2)ccc1-c1noc(-c2cccnc2)n1,"inconclusive: 0.708 µM [inhibitor, single point]",
O=C(NCC1CCCO1)c1ccc(NC(=O)c2cc(F)c(F)cc2Cl)cc1 (centres undefined),"inconclusive: 35.5 µM [activator, single point]",
O=C(CC1C(=O)NCCN1Cc1ccc(-c2ccccc2)cc1)NCc1ccccc1 (centres undefined),"inconclusive: 35.5 µM [inhibitor, single point]",
Oc1c(/C=N/c2ccccn2)sc2ccccc12,"inconclusive: 14.1 µM [inhibitor, single point]",
Cc1noc(C)c1C(=O)N1CCCC(C(=O)c2cccc(C(F)(F)F)c2)C1 (centres undefined),,inactive: 0.555%
NC(N)=Nc1nc(CSCC/C(N)=N\S(N)(=O)=O)cs1,,inactive: 7.78%
Cc1cccc(CSCCNC(=O)c2ccc(CN3CCOCC3)cc2)c1,"inconclusive: 10 µM [activator, partial curve]",
CCOc1ccc(N/C(SCc2cccc([N+](=O)[O-])c2)=C(/C#N)C(N)=O)cc1,,inactive: -1.58%
COc1cnn(-c2ccc(Br)cc2)c(=O)c1SCc1ccccc1,"inconclusive: 35.5 µM [inhibitor, single point]",
COc1ccc(OC)c(Nc2nc(-c3c(C)nc4ncccn34)cs2)c1,"inconclusive: 15.8 µM [inhibitor, single point]",
CCCNC(=O)c1cc(S(=O)(=O)N2CCc3ccccc32)ccc1F,"inconclusive: 1.41 µM [activator, partial curve]",
Cc1ccsc1/C=N\NC(=O)c1cc(C(C)(C)C)[nH]n1,active: 10 µM,
COc1ccc(/C=C2/SC(=O)N(CCNC(=O)C3COc4ccccc4O3)C2=O)cc1 (centres undefined),"inconclusive: 5.62 µM [activator, partial curve]",
c1ccc2c(CSCCc3ccncc3)cccc2c1,"inconclusive: 12.6 µM [inhibitor, single point]",
CCCCCc1cc(=O)oc2c(C(CCN3CCCC(C)C3)c3ccc(N(C)C)cc3)c(OC)cc(OC)c12 (centres undefined),,inactive: -10.7%
O=C(Nc1ncnc2sc3c(c12)CCCCC3)c1ccco1,"inconclusive: 4.47 µM [inhibitor, full curve]",
CN(Cc1ccco1)C(=O)Cn1ncc2c([nH]c3ccccc32)c1=O,"inconclusive: 11.2 µM [activator, partial curve, poor fit]",
COc1cc(/C=N/NC(=O)CCN2CCN(C(c3ccccc3)c3ccccc3)CC2)ccc1O,,inactive: 43.4%

SMILES,Potency,"activity change, negative = inhibition"
CC(=O)c1cc(F)c(N2CCCCCC2)cc1C,"inconclusive: 3.98 µM [activator, partial curve]",
Cc1ccc(NC(=O)c2sc3nc4c(c(-c5ccco5)c3c2N)CCC4)cc1,"inconclusive: 0.112 µM [activator, full curve, poor fit]",
O=c1[nH]nc(Cc2ncc(C(F)(F)F)cc2Cl)c2ccccc12,"inconclusive: 35.5 µM [activator, single point]",
COc1cccc(CC(NC(C)=O)C(=O)NC2CCN(C(=O)c3ccc(Cl)cc3)CC2)c1 (centres undefined),,inactive: -14%
CC(C)N1C(=O)S/C(=C/c2ccc(Sc3nc4ccccc4[nH]3)o2)C1=O,"inconclusive: 35.5 µM [inhibitor, single point]",
COc1ccc(C2=NN(c3ccc(C(=O)O)cc3)C(c3ccc(OC)c(OC)c3)C2)cc1 (centres undefined),active: 7.08 µM,
CC(C)NCC(O)COc1ccc(COCCOC(C)C)cc1 (centres undefined),inactive,
COc1cccc(CNC(=O)Cc2ccc(-n3c(=O)[nH]c4ccccc4c3=O)cc2)c1,,inactive: 32.8%
COc1ccc(C)cc1-n1nnnc1SCc1cc(=O)n2cc(C)ccc2n1,,inactive: -2.61%
NC1=NN=C(N2N=C(c3ccc(Br)cc3)CC2(O)C(F)(F)F)n2ncnc2C1 (centres undefined),"inconclusive: 35.5 µM [inhibitor, single point]",
CCn1c(SCc2cccc(C(=O)O)c2)nnc1-c1ccc(Cl)cc1,,inactive: -0.312%
COc1ccc(CN2CN(S(=O)(=O)c3cccs3)c3nc4ccccc4nc32)cc1,"inconclusive: 17.8 µM [activator, partial curve]",
O=C1CC(Nc2ccccc2)C(=O)N1CCc1ccccc1 (centres undefined),"inconclusive: 14.1 µM [activator, single point]",
CN(C)c1ccc(/C=C(\C#N)C(=O)NCc2ccco2)cc1,"inconclusive: 35.5 µM [inhibitor, single point]",
Cc1ccc(NC(=S)NC(=O)c2c(-c3ccccc3Cl)noc2C)cc1,active: 3.98 µM,
CCC(CC)COC(=O)C(C#N)c1nc2ccccc2nc1N1CCN(CC)CC1 (centres undefined),"inconclusive: 25.1 µM [inhibitor, single point]",
Cc1ccccc1OCc1nc(-c2ccc(NC(=O)c3ccc4c(c3)OCO4)cc2)no1,"inconclusive: 35.5 µM [inhibitor, single point]",
CCc1nnc(NC(=O)CSc2nc(-c3ccccc3)c(-c3ccccc3)o2)s1,"inconclusive: 17.8 µM [inhibitor, single point]",
CC(C)c1nnc(N2C(=O)c3oc4ccccc4c(=O)c3C2c2ccco2)s1 (centres undefined),"inconclusive: 35.5 µM [inhibitor, single point]",
Cc1ccc(Cl)cc1S(=O)(=O)N1CCC(C(=O)NC2CCN(Cc3ccccc3)CC2)CC1,"inconclusive: 3.16 µM [activator, single point]",
O=[N+]([O-])c1cc(C(F)(F)F)cc([N+](=O)[O-])c1NCc1cccnc1,"inconclusive: 14.1 µM [inhibitor, single point]",
COC(=O)c1cc(Br)c(=O)n(CCN2CCCC2)c1,,inactive: -1.78%
COc1ccc2oc(=O)c(-c3csc(Nc4ccc(O)cc4)n3)cc2c1,"inconclusive: 10 µM [activator, single point]",

SMILES,Potency,"activity change, negative = inhibition"
COC(=O)Nc1nc2c(s1)CCCC2,"inconclusive: 1.78 µM [activator, full curve]",
Cc1ccc(C(=O)Nc2nc(=O)n(C)s2)cc1,active: 8.91 µM,
Cc1onc(-c2c(F)cccc2Cl)c1C(=O)ONC(=O)c1ccccc1,,inactive: 2.35%
CCCCNC(=O)C(c1ccc(OCC(=O)OC)c(C(=O)OC)c1)N(CCOC)C(=O)CCCCCN1C(=O)NC(c2ccc(-c3ccccc3)cc2)C(C(=O)OCc2ccccc2)=C1C (centres undefined),inactive,
Cn1nccc1C(=O)N1CCN(c2ccccc2F)CC1,"inconclusive: 0.0045 µM [inhibitor, full curve, poor fit]",
N#C/C(=C1\C(=O)Nc2c(Cl)cc(Cl)cc21)c1nnc2n1CCCCC2,active: 15.8 µM,
COc1ccc(CCN(C)Cc2cccc3ccccc23)cc1OC,,inactive: -19.8%
COc1cccc(NC(=O)c2ccc3nc(C)sc3c2)c1,"inconclusive: 0.141 µM [activator, full curve]",
CCN(Cc1ccccc1)c1ccc(/C=N/NC(=O)c2cccc(S(=O)(=O)N3CCOCC3)c2)cc1,active: 6.31 µM,
CCOC(=O)c1ccc(NC(=S)Nc2ccc(C)cc2)cc1,active: 12.6 µM,
O=c1c(-c2cccs2)nc2cnc(N3CCNCC3)nc2n1Cc1cccs1,active: 17.8 µM,
Cc1cc(=O)[nH]c2c(C)cc(S(=O)(=O)NCc3ccccc3)cc12,"inconclusive: 31.6 µM [activator, single point]",
Cc1ccc2nc3sc(C(=O)NCc4ccco4)c(N)c3cc2c1,"inconclusive: 3.55 µM [activator, full curve, poor fit]",
Nc1ccccc1NC1=CC(=O)CC(c2ccco2)C1 (centres undefined),"inconclusive: 35.5 µM [inhibitor, single point]",
CC(=O)NCCc1nc2cc(NC(=O)Nc3ccccc3)ccc2n1C,"inconclusive: 20 µM [inhibitor, single point]",
CCOC(=O)CN(C)S(=O)(=O)c1ccc(-c2cc(C(=O)OC)sc2C(F)(F)F)cc1,"inconclusive: 35.5 µM [activator, single point]",
CC1(C)CCC(=O)C=C1Nc1ccc(F)c(Cl)c1,"inconclusive: 35.5 µM [activator, single point]",
O=C(c1ccc(Cn2c(=S)[nH]c3cc4c(cc3c2=O)OCO4)cc1)N1CCN(c2ccccc2)CC1,active: 3.16 µM,
CCCc1cc(=O)oc2cc(C)cc(OCC(=O)NCCCN3CCCC3=O)c12,,inactive: 2.19%
O=C(CSc1ccc(-c2ccc(F)cc2)nn1)NCc1ccco1,"inconclusive: 14.1 µM [activator, single point]",
Cc1cc(C)c(N(Cc2ccccc2)S(=O)(=O)c2ccc(OCCNC(=O)c3cc4ccccc4o3)cc2)c(C(=O)NO)c1,active: 10 µM,
Cc1ccc(S(=O)(=O)CC(=O)Nc2ccc(Cl)cn2)cc1,"inconclusive: 31.6 µM [activator, single point]",
CCOC(=O)c1nn(-c2ccc(C)cc2)c(=O)c2c(N)scc12,"inconclusive: 0.0708 µM [activator, full curve, poor fit]",

# Taken from the listing for reference:
SMILES,Potency,"activity change, negative = inhibition"
N#C/C(=C1\C(=O)Nc2c(Cl)cc(Cl)cc21)c1nnc2n1CCCCC2,active: 15.8 µM,
COc1ccc(CCN(C)Cc2cccc3ccccc23)cc1OC,,inactive: -19.8%
COc1cccc(NC(=O)c2ccc3nc(C)sc3c2)c1,"inconclusive: 0.141 µM [activator, full curve]",
CCN(Cc1ccccc1)c1ccc(/C=N/NC(=O)c2cccc(S(=O)(=O)N3CCOCC3)c2)cc1,active: 6.31 µM,
CCOC(=O)c1ccc(NC(=S)Nc2ccc(C)cc2)cc1,active: 12.6 µM,

# — PubChem BioAssay AID2551 (National Center for Advancing Translational Sciences (NCATS), 2010)
